Data as given in PubChem BioAssay AID743121 (NCATS, 2013).
Aim: 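Knock-downs that sensitise breast cancer cells to camptothecin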 (primary screen). Cells: MDA-MB-231 cells, a human breast cancer line. Reagent: single siRNA against human genes, 20 nM siRNA (0.8 pmol per well). Time to read-out: 120 h (drug added 48 h after transfection, read 72 h later). Conditions: camptothecin 20 nM (about EC30) for 72 h; vehicle 0.1% DMSO in parallel plates. Read-out: 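CellTiter-Glo ATP signal, scaled to control siRNA as percent viability; sensitisation given as log2 of untreated divided by camptothecin-treated viability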. Scale: log2 vehicle/camptothecin viability: higher = stronger sensitisation to camptothecin. Call rule: 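Each gene scored by redundant siRNA activity (RSA) over its individual siRNA ratios; a gene is called active at p < 0.001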.
The whole screen tested about 26,000 reagents; this is a part drawn at random. Of all reagents, 167 (0.63%) got an active call. 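Calls are per gene from RSA p-values that are not deposited; an individual active-marked siRNA can sensitise only weakly.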 Entries without a mark were called inactive. The numbers tell different reagents against one gene apart. Not all columns of the deposit are shown. No sequences are given here.

Target gene,reagent,log2 vehicle/camptothecin viability
TOP3A,1,0.18
TOP3A,2,0.219
TOP3A,3,-0.277
DNMT3B,1,0.119
DNMT3B,2,-0.0548
DNMT3B,3,0.641
DNMT3B,4,-0.121
DDX41,1,-0.336
DDX41,2,-0.519
DDX41,3,-0.181

A run of entries taken from the entries so far, for reference:
Target gene,reagent,log2 vehicle/camptothecin viability
DNMT3B,3,0.641
DNMT3B,4,-0.121

Next reagents:
Target gene,reagent,log2 vehicle/camptothecin viability
SENP1,1,0.0197
SENP1,2,0.617
SENP1,3,-0.433
SENP1,4,0.318
GRK5,1,0.113
GRK5,2,0.13
GRK5,3,0.557
GRK5,4,0.448
TSHR,1,0.0359
TSHR,2,-0.0696
TSHR,3,-0.389
TSHR,4,0.914
BET1,1,-0.231
BET1,2,0.413
BET1,3,-0.2
BET1,4,-0.741
TUBAL3,1,-0.282
TUBAL3,2,-0.429
TUBAL3,3,-0.112
TUBAL3,4,-0.0295
